The values below come from patent US7528235B2, “Multi-functional antibodies” (The Regents of the Univarsity of California, priority 2003, dated 2009).

This data set concerns 2D12.5. Nature of the data set: time-resolved terbium luminescence of Tb-DOTA bound to 2D12.5. Also noted: species or system murine.

Structures are written as SMILES.

In the case of `O=C([O-])CN1CCN(CC(=O)[O-])CCN(CC(=O)[O-])C(Cc2ccc([N+](=O)[O-])cc2)CN(CC(=O)[O-])CC1.[Tb+3]` (centres unmarked) [Tb-DOTA], the “enhancement of green terbium luminescence relative to unbound Tb-DOTA” value (UV excitation of the Tb-DOTA-2D12.5 complex) is on record as “approximately four orders of magnitude”. The “enhancement in the green 545 nm emission” value (time-resolved 280 nm excitation, FIG. 15) is recorded as “marked, linear enhancement”.
